The target in data set [1] is T1, DdrOC (DdrO) (Deinococcus deserti) (UniProt C1CYP4).
T1 sequence (looked up, limits assumed): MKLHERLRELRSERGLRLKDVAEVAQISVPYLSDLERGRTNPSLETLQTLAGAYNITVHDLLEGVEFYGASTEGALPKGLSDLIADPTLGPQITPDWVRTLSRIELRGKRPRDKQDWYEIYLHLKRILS
Description: EMSA. Conditions: EMSA: 10 mM Tris-HCl pH 7.4, 60 mM NaCl, 1 mM DTT, 5% glycerol, 200 ng DNA in 20 ul, 30 min room temperature, 5% PAGE in TAE at 4 C, ethidium bromide, recombinant protein, protein details: untagged (His6-SUMO removed by SUMO protease), probe letters rebuilt from the primers and the genome. (In general: In EMSA bound probe runs differently from free probe, usually more slowly.)

Data set [2] concerns the target T2, DdrOC cleaved by IrrE (Deinococcus deserti) (UniProt C1CYP4).
T2 sequence (looked up): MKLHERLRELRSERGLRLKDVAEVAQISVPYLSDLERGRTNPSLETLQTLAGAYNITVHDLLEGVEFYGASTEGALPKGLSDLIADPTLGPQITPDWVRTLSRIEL
As to the kind of experiment: EMSA. Conditions: DdrO preincubated with IrrE (1.7 uM each) before DNA; EMSA: 10 mM Tris-HCl pH 7.4, 60 mM NaCl, 1 mM DTT, 5% glycerol, 200 ng DNA in 20 ul, 30 min room temperature; 5% PAGE in TAE at 4 C, ethidium bromide; recombinant protein; residues 1-106; protein details: untagged; probe letters rebuilt from the primers and the genome.

For some of these results: A negative result means that nothing was seen under these conditions. Where a protein sequence is shown, tags need not be part of it. For some of these results: The exact form of at least one protein or probe is not confirmed. For some of these results: At least one verdict rests on a figure or table, not on a statement of the authors.

This is an account of results in paper PMC5552922.

As for “TATAGGTACCGGTACTCCTTCCTGTCCGACAGCAGACAGCGAGGCAAAGCATGAATAGTCGGTCTTAAGGGGGTAAAAGCCTTCTTGATTACGATCATAGCAGATCGTCTCGTGGTGGGCAAGAAGAACTCCTCTCTATTCTGTATTGACCGTACCGGGAAGCGGTGTTACACTCCAACCAAGGGTGCCCGATTCTGCCTACAGGCAAACGCTCCCCCAGGCGGCCCGCCCGGTCAGCGCACAGTCCCGGTCGCTCAAAGCTGCAGTATC (double strand) [ddrOC-ddrQ intergenic region]”, the binding result in data set [1] (0.8 uM DdrO, 57 nM DNA) is “binds”.
For the sequence “TCTGGGTACCGTGAGCTATGGACCCTCGGCCTGCCGCGGCTACGGCGTCTACACGCGCGTCAACGGCTATATCAACTGGATCTATCAGCAGACAGGAATTGGCGCACAGTAATTCGAATTGTTTGGACTACCCCTGGCTAGAGCTGGGGGTTTTCCACGTTCGGGAGCGCAAAAACCAACCGATAATCACCTTACTCGGAAGAGGAATTACGCCTTGACCAGAATTCCATTCTGTTATAAACTAAATCCATCTGCAGGAGCGATGTACAG (double strand) [ddrA promoter region]”, the binding result in data set [1] (0.8 uM DdrO, 64 nM DNA) is on record as “binds”; in data set [1] (DdrO preincubated with inactive IrrE-E83Q (1.7 uM each) before DNA), “binds”; in data set [2], “no binding”.
